{"source": "paper PMC9964404", "about": "“Molecular Modeling and In Vitro Evaluation of Piplartine Analogs against Oral Squamous Cell Carcinoma” (Molecules, 2023)", "key": {"SCC9 cells": {"tested_on": "SCC9 cells", "assay": "MTT cell viability (cytotoxicity) assay, SCC9", "type": "cell-based, human", "conditions": "for S.I.: IC50 in normal oral fibroblasts / IC50 in SCC9", "protocol": "(§1) SCC cells (SCC9 and SCC4), derived from human tongue OSCC, were obtained by (ATCC® CRL-1629 and CRL-1624) and maintained in DMEM/F12 1:1 medium (Dulbecco’s modified Eagle’s medium and Ham’s F12 medium, Gibco (Thermo Fisher, Waltham, MA, USA), supplemented with 10% (v/v) FBS (Fetal Bovine Serum; Invitrogen, Thermo Fisher, Waltham, MA, USA) and 400 ng/mL hydrocortisone (Sigma-AldrichCo., St. Louis, MO, USA). Primary normal gingival fibroblast human (PCS201 018TM) and other tumor cells B16-F10 (CRL-6475), Hep G2 (HB-8065), and HT-29 (HTB-38) were also obtained at ATCC and maintained in DMEM supplemented with 10% (v/v) FCS. Cells were cultured in a humidified environment containing 5% CO2 at 37 °C. For all experiments, the compounds were solubilized in DMSO (Sigma-Aldrich) for a final concentration of 100 mM. From this dilution, other concentrations were made to carry out the cell viability assay. Carboplatin (Fauldcarbo®; Libbs Farmacêutica, São Paulo, SP, Brazil) was used as a control antitumor compound.\n(§2) The viability of cancer cells and primary fibroblasts was tested using the MTT assay as described in MACHADO et al., 2021 [49]. Briefly, cancer cells (5 × 10^3 cells/well) were plated in duplicate in a 96-well plate, as indicated. DMSO was diluted in culture medium at the same concentrations and was used as a negative control, representing 100% cell viability. After 48 h of treatment, cells were incubated for 3.5 h with 5 mg/mL of MTT reagent (3,4,5-dimethiazol-2,5-diphenyltetrazoliumbromide) (Sigma-Aldrich Co., St. Louis, MO, USA) diluted in culture medium. Subsequently, the formazan crystals were dissolved by MTT solvent (50% Methanol and 50% DMSO), and the absorbance was read at 560 nm using the EPOCH microplate spectrophotometer (BioTekInstruments, Winooski, VT, USA).\nIC50 values for the MTT assay were obtained by non-linear regression using GraphPad Prism 5.0 software (GraphPad, San Diego, CA, USA) from at least three independent experiments. Data are presented as means, ± standard deviation (SD). A log dose response (inhibitor) vs. response curve using the least square method was used to determine the IC50 and SD of the data. The selectivity index was calculated as: S.I. = IC50 of the compound in fibroblasts/IC50 of the same compound in tumor cells."}, "[1]": {"tested_on": "Oral Tumor Cells (SCC9, SCC4)", "assay": "MTT cell viability assay, average of OSCC lines SCC9 and SCC4", "type": "cell-based, human", "conditions": "fibroblast IC50 / average IC50 of SCC9 and SCC4", "protocol": "as §1, §2\n(§3) IC50 values for the MTT assay were obtained by non-linear regression using GraphPad Prism 5.0 software (GraphPad, San Diego, CA, USA) from at least three independent experiments. […] The selectivity index was calculated as: S.I. = IC50 of the compound in fibroblasts/IC50 of the same compound in tumor cells."}, "HEP G2 (hepatocarcinoma)": {"tested_on": "HEP G2 (hepatocarcinoma)", "assay": "MTT cell viability assay, HEP G2", "type": "cell-based", "conditions": "fibroblasts vs HEP G2", "protocol": "as §1, with “For all experiments, the compounds were solubilized in DMSO (Sigma-Aldrich) for a final concentration of 100 mM. From this dilution, other concentrations were made to carry out the cell viability assay. Carboplatin (Fauldcarbo®; Libbs Farmacêutica, São Paulo, SP, Brazil) was used as a control antitumor compound.” left out\n(§4) The viability of cancer cells and primary fibroblasts was tested using the MTT assay as described in MACHADO et al., 2021 [49]. […] Subsequently, the formazan crystals were dissolved by MTT solvent (50% Methanol and 50% DMSO), and the absorbance was read at 560 nm using the EPOCH microplate spectrophotometer (BioTekInstruments, Winooski, VT, USA).\nas §3"}, "[2]": {"tested_on": "HT-29 (colon adenocarcinoma)", "assay": "MTT cell viability assay, HT-29", "type": "cell-based", "conditions": "fibroblasts vs HT-29", "protocol": "as §1, with “For all experiments, the compounds were solubilized in DMSO (Sigma-Aldrich) for a final concentration of 100 mM. From this dilution, other concentrations were made to carry out the cell viability assay. Carboplatin (Fauldcarbo®; Libbs Farmacêutica, São Paulo, SP, Brazil) was used as a control antitumor compound.” left out\nas §4, §3"}}, "note": "Where “and” joins values, the source holds several entries; their conditions need not be identical. Equal values may be shown once."}
{"smiles": "N.N.O=C([O-])C1(C(=O)[O-])CCC1.[Pt+2]", "note": "[Carboplatin, reference compound]", "values": [{"measurement": "S.I.", "setting": "SCC9 cells", "result": 2.46}, {"measurement": "Average S.I.", "setting": "[1]", "result": 2.67}]}
{"smiles": "CCCOC(=O)c1cc(OC)c(OC)c(OC)c1", "note": "[Compound 3, Propyl 3,4,5–trimethoxybenzoate]", "values": [{"measurement": "S.I.", "setting": "SCC9 cells", "result": 4.20}]}
{"smiles": "COc1cc(C(=O)OC(C)C)cc(OC)c1OC", "note": "[Compound 4, Isopropyl 3,4,5–trimethoxybenzoate]", "values": [{"measurement": "S.I.", "setting": "SCC9 cells", "result": 4.81}, {"measurement": "Average S.I.", "setting": "[1]", "result": 4.79}]}
{"smiles": "CCCCOC(=O)c1cc(OC)c(OC)c(OC)c1", "note": "[Compound 5, Butyl 3,4,5–trimethoxybenzoate]", "values": [{"measurement": "S.I.", "setting": "SCC9 cells", "result": 2.50}, {"measurement": "times more potent than N-butyl-3,4,5-trimethoxybenzoamide (13)", "setting": "SCC9 cells; SCC9 IC50 ratio", "result": 2.3}]}
{"smiles": "COc1cc(C(=O)OCCC(C)C)cc(OC)c1OC", "note": "[Compound 6, Isopentyl 3,4,5–trimethoxybenzoate]", "values": [{"measurement": "S.I.", "setting": "SCC9 cells", "result": 3.56}]}
{"smiles": "CCCCCOC(=O)c1cc(OC)c(OC)c(OC)c1", "note": "[Compound 7, Pentyl 3,4,5–trimethoxybenzoate]", "values": [{"measurement": "S.I.", "setting": "SCC9 cells", "result": "< 2 and 1.62"}]}
{"smiles": "COc1ccc(COC(=O)c2cc(OC)c(OC)c(OC)c2)cc1", "note": "[Compound 9, 4-Methoxy-benzyl 3,4,5–trimethoxybenzoate]", "values": [{"measurement": "S.I.", "setting": "SCC9 cells", "result": "> 16 and 16.02"}, {"measurement": "times more potent than Carboplatin", "setting": "SCC9 cells; SCC9 IC50 ratio", "result": 4.5}, {"measurement": "Average S.I.", "setting": "[1]", "result": 15.42}, {"measurement": "S.I.", "setting": "HEP G2 (hepatocarcinoma)", "result": "> 100 and 111.7"}, {"measurement": "S.I.", "setting": "[2]", "result": "> 100 and 101.3"}]}
{"smiles": "CCCCNC(=O)c1cc(OC)c(OC)c(OC)c1", "note": "[Compound 13, N-Butyl-3,4,5–trimethoxybenzamide]", "values": [{"measurement": "S.I.", "setting": "SCC9 cells", "result": 5.03}]}
